This note sets out measurements from US5786332A, “Cytokine restraining agents and methods of use in pathologies and conditions associated with altered cytokine levels” (Trega Biosciences, Inc., priority 1995, dated 1998).

The data set has as its system Sprague-Dawley rats. As to the kind of experiment: Cyclosporine-induced nephrotoxicity. It is filed as in vivo. Conditions: second study, control 27.6±1.9. An excerpt: B. Cyclosporine-Induced Nephrotoxicity: This experiment as performed to ascertain if EX-2 can mitigate the reduction in glomerular filtration rate (GFR) and renal blood flow, as well as the dysfunction in fluid and electrolyte homeostasis induced by immunosuppressive treatment with cyclosporine A.
In the first study, male Sprague-Dawley rats (n=43) with a weight range of 240-290 g at the initiation of the cyclosporine A (CsA) treatment were divided into 4 weight matched groups. […] Renal blood flow was determined by the inulin extraction technique. […]
In the second study, male Sprague-Dawley rats (n=31) with a weight range of 240-290 g at the time of initiation of the cyclosporine treatment were divided into 4 weight-matched groups. […] Renal hemodynamics were determined and extracellular fluid volumes were also assessed.
In the second study, where extracellular fluid volumes (ECF) were measured, there were no differences in ECF among control and treatment groups (27.6±1.9 in control, 27.5±1.7 in CsA and vehicle, 26.2±0.9 in CsA+200 μg/kg EX-2, and 25.7±1.4% in CsA+500 μg/kg EX-2). […]

As to “Ac-Nle-Gln-His-(D)Phe-Arg-(D)Trp-Gly-NH2 [EX-2]”, the “Extracellular fluid volume (ECF)” value is on record as 26.2±0.9% (CsA 30 mg/kg SC + 200 μg/kg EX-2 twice daily) and 25.7±1.4% (CsA 30 mg/kg SC + 500 μg/kg EX-2 twice daily).
